{"source": "PubChem BioAssay AID504744 (Drosophila RNAi Screening Center, 2011)", "aim": "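Identify dsRNAs that increase or decrease phospho-dAkt after insulin treatment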 (primary screen)", "system": "Drosophila Kc167 cells", "knock-down reagent": "long dsRNA against Drosophila genes, 250 ng dsRNA per well of a 384-well plate", "duration": "3 days of knock-down, then overnight serum-free starvation before stimulation", "challenge": "bovine insulin at 387 nM for 10 minutes after 12 h without serum", "read-out": "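Per-well phospho-dAkt level from an in-cell fluorescent antibody stain, divided by a DNA-dye signal; log2 residuals turned into z-scores that take cell number into account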", "hit rule": "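Hit in the insulin screen when the two-replicate mean z-score is more extreme than plus or minus 2.5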", "note": "The deposit covers about 23,000 reagents; below is a random part of those that have a named target and a result. Over the whole deposit, 98 (0.43%) got an active call. 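Only hit calls are given; the phospho-dAkt signals, z-scores and hit direction were not deposited.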 Names joined by + are all predicted targets of the reagent."}
{"gene":"CG4546","amplicon":"DRSC15593","Outcome":"inactive"}
{"gene":"CG16713","amplicon":"DRSC00477","Outcome":"inactive"}
{"gene":"CG12520","amplicon":"DRSC09892","Outcome":"inactive"}
{"gene":"CG1907","amplicon":"DRSC15399","Outcome":"inactive"}
{"gene":"CG31855","amplicon":"DRSC02968","Outcome":"inactive"}
{"gene":"CG45067","amplicon":"DRSC08414","Outcome":"inactive"}
{"gene":"Dtwd2","amplicon":"DRSC12501","Outcome":"inactive"}
{"gene":"Rab23","amplicon":"DRSC12305","Outcome":"inactive"}
{"gene":"l(2)k14505","amplicon":"DRSC03106","Outcome":"inactive"}
{"gene":"CG42579","amplicon":"DRSC20391","Outcome":"inactive"}
{"gene":"CG33462","amplicon":"DRSC22902","Outcome":"inactive"}
{"gene":"EMRE","amplicon":"DRSC06686","Outcome":"inactive"}
{"gene":"Prosalpha4T1","amplicon":"DRSC16800","Outcome":"inactive"}

As entered above.
Rab23 [DRSC12305], Outcome → inactive
CG45067 [DRSC08414], Outcome: inactive
CG1907 [DRSC15399], Outcome = inactive

Continued:
{"gene":"Gr93a","amplicon":"DRSC14593","Outcome":"inactive"}
{"gene":"CG12493","amplicon":"DRSC08279","Outcome":"inactive"}
{"gene":"CG5773","amplicon":"DRSC06955","Outcome":"inactive"}
{"gene":"Cerk","amplicon":"DRSC12285","Outcome":"inactive"}
{"gene":"Ilp7","amplicon":"DRSC17895","Outcome":"inactive"}
{"gene":"CG34277 + CG31542","amplicon":"DRSC21544","Outcome":"inactive"}
{"gene":"CG8087","amplicon":"DRSC16375","Outcome":"inactive"}
{"gene":"Uxt","amplicon":"DRSC01962","Outcome":"inactive"}
{"gene":"ssp2","amplicon":"DRSC11052","Outcome":"inactive"}
{"gene":"CG7333","amplicon":"DRSC16229","Outcome":"inactive"}
